A short description of this assay: qHTS Assay to Find Inhibitors of Chronic Active B-Cell Receptor Signaling. The settings on record: ABC-DLBCL IkBa-CBG/CBR reporter, luminescence ratio (green luciferase fused to IkBa over red control in TMD8 lymphoma cells), 4 h. In outline: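 TMD8 ABC-DLBCL cells carrying doxycycline-inducible green luciferase fused to IkappaBalpha plus unfused red luciferase were exposed to compounds (up to 46 uM) for 4 hrs at 37C. Activity came from the overlap-corrected green/red luminescence ratio.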

[1] abbreviates: measured here: CBR red luminescence, cell number.
Where [2] appears, read: measured here: IkBa-CBG green luminescence.

Some of the results follow. Further columns of the screen follow, without active or inactive calls. Most of these compounds were active or inconclusive in the main read-out, so they are no random draw. Potencies come from curve fits of mixed quality, noted in brackets.

On to `N#C/C(=C\c1c(Oc2ccc(Cl)cc2)nc2ccccn2c1=O)C(=O)NC1CCS(=O)(=O)C1` (stereo unspecified), for which the AC50 under setting [1] was 35.5 µM [falling, single point].

On to `Cc1ccc2oc(-c3ccc(NC(=O)CC(C)C)cc3)nc2c1`, for which, under setting [1], the AC50 is 0.501 µM [rising, full curve, poor fit].

As to `COc1cc2c3c(c1)C1(C(=O)N3C(C)(C)C=C2C)C(C#N)=C(N)Oc2cc(C)oc(=O)c21` (stereo unspecified), under setting [1], the AC50 was 5.01 µM [rising, partial curve, poor fit].

With `CCN(CC)Cc1c(C(=O)N/N=C/c2ccco2)nnn1-c1nonc1N`, the AC50 under setting [1] is 22.4 µM [falling, single point].

For the molecule `CC(=O)Nc1nc(C)c(-c2nc3ccc([N+](=O)[O-])cc3[nH]2)s1`, under setting [1], the AC50 is 14.1 µM [rising, partial curve].

With `Cc1csc(SCC(=O)Nc2ncc(Cl)c(C)c2Cl)n1`, the AC50 under setting [1] is 0.0891 µM [falling, full curve, poor fit].

As to `c1ccc(OCc2nc(-c3ccncc3)no2)cc1`, the AC50 under setting [1] is 0.251 µM [rising, full curve, poor fit].

As to `Cc1c(CCO)c(=O)[nH]n1C(=O)c1c(F)cccc1F`, under setting [2], the AC50 was 3.66 µM [rising, partial curve, poor fit].

As to `CN(C)S(=O)(=O)c1ccc(Cl)c(NC(=O)COC(=O)c2cc(-c3ccccc3)nc3ccccc23)c1`, the AC50 under setting [1] was 3.66 µM [falling, partial curve, poor fit].

Take `Cc1nnc(N2C(=O)c3cccc4cccc(c34)C2=O)s1`: the AC50 under setting [1] was 1.46 µM [rising, partial curve, poor fit].

Regarding `OC(CNCCc1ccc(C(F)(F)F)cc1)COC(c1ccccc1)c1ccccc1` (stereo unspecified), the AC50 under setting [1] is 22.4 µM [falling, single point].

`Cc1cccc(CC2S/C(=N/N=C/c3ccco3)NC2=O)c1` (stereo unspecified): under setting [1], the AC50 was 14.1 µM [rising, single point].

Regarding `COc1ccccc1N1CCN(C(=O)c2nn(-c3ccccc3OC)c(=O)c3ccccc23)CC1`, the AC50 under setting [1] is 29.1 µM [falling, partial curve, poor fit].

`Cc1nccn1Cc1cccc2ccccc12`: the half-maximal activity concentration (AC50) under setting [1] is 2.06 µM [falling, partial curve, poor fit].

On to `COc1ccc(CCNC(=O)CCn2c(=O)c3cccn3c3ccc(F)cc32)c(OC)c1OC`, for which, under setting [1], the AC50 was 0.794 µM [rising, full curve].

`COc1ccccc1-c1nnc(SCC(=O)Nc2c(Cl)cccc2Cl)o1`: the AC50 under setting [1] was 0.103 µM [rising, full curve, poor fit].

For `Cc1nn2c(NCc3ccccn3)c3c(nc2c1-c1ccccc1)CCC3`, the half-maximal activity concentration (AC50) under setting [1] was 3.55 µM [rising, partial curve].

On to `C/C(NC(=O)c1ccccc1)=C1/C(=O)CC2C1C2(C)C` (stereo unspecified), for which the AC50 under setting [1] is 7.08 µM [rising, full curve, poor fit].

Turning to `Clc1ccccc1-c1nnc(-c2ccc3c(c2)OCO3)o1`, under setting [1], the AC50 was 25.1 µM [falling, single point].

As for `CCCCNC(=O)/C(C#N)=C/c1ccc(F)cc1F`, the AC50 under setting [1] was 35.5 µM [falling, single point].

As to `O=[N+]([O-])c1cccnc1Sc1n[nH]c(-c2ccc(Cl)cc2)n1`, under setting [1], the AC50 is 11.2 µM [falling, single point].

On to `CCOC(=O)c1cnc2ccc(F)cc2c1Nc1ccc2c(c1)OCCO2`, for which, under setting [1], the AC50 is 20.6 µM [falling, single point].

As for `CCOC(=O)C1CCN(C(=O)c2cc3cc4ccc(C)cc4nc3o2)CC1`, the AC50 under setting [1] was 1.12 µM [falling, full curve].

In the case of `CCN(CC)C(=O)C1CCCN(c2ccc([N+](=O)[O-])cc2[N+](=O)[O-])C1` (stereo unspecified), the AC50 under setting [1] is 35.5 µM [falling, single point].

Take `Oc1ccc(/C=N/Nc2ccc(Cl)nn2)c(O)c1O`: the AC50 under setting [1] was 15.8 µM [rising, partial curve, poor fit].

With `Cc1ccc(-n2nnnc2Sc2ccc(S(=O)(=O)NCCN(C)C)cc2[N+](=O)[O-])cc1`, the AC50 under setting [1] was 4.61 µM [falling, partial curve].

As to `Cc1nc2ccc(-c3nc4ccccc4[nH]3)cc2[nH]1`, the AC50 under setting [1] is 8.91 µM [falling, partial curve].

In the case of `CCOc1ccc(NC(=O)NC(C)c2ccc3c(c2)OCO3)cc1` (stereo unspecified), under setting [1], the AC50 is 10 µM [rising, partial curve].

On to `CCn1ncc(Br)c1C(=O)Nc1cc([N+](=O)[O-])ccc1C`, for which the AC50 under setting [1] is 0.92 µM [rising, full curve, poor fit].

Turning to `CCCNc1nc2c(c(=O)n(C)c(=O)n2C)n1Cc1cccc(C)c1`, the AC50 under setting [1] was 35.5 µM [falling, single point].

For `Cc1ccc(C(C(=O)NC(C)(C)C)N(CCCN2CCOCC2)C(=O)c2ccc(-c3ccccc3)[nH]2)o1` (stereo unspecified), the AC50 under setting [1] is 35.5 µM [rising, single point].

For the molecule `CC1(C)CC(=O)C2=C(C1)N=C1c3ccccc3C(=O)C1C2c1ccc(Cl)cc1` (stereo unspecified), under setting [1], the half-maximal activity concentration (AC50) was 23.1 µM [falling, partial curve, poor fit].

As for `Cc1c(C(C)(C)O)[nH]c2cc(C(F)(F)F)ccc12`, the AC50 under setting [1] was 11.2 µM [rising, partial curve, poor fit].

For the molecule `O=C(O)c1ccc(CN(c2ccccc2)S(=O)(=O)c2ccccc2)cc1`, the AC50 under setting [1] is 28.2 µM [rising, single point].

For the molecule `O=C1OC(Nc2ccc3c(c2)OCO3)c2ccccc21` (stereo unspecified), the half-maximal activity concentration (AC50) under setting [1] was 5.01 µM [falling, partial curve, poor fit].

With `Cc1ccc(N=Nc2ccc(O)c3ncccc23)cc1`, the AC50 is, setting by setting: under setting [1], 5.17 µM [rising, full curve]; under setting [2], 5.17 µM [falling, partial curve, poor fit].

In the case of `COC(=O)c1cc(C(=O)NCCN2C(=O)S/C(=C\c3cccs3)C2=O)cc([N+](=O)[O-])c1`, the AC50 under setting [1] is 1.64 µM [rising, full curve, poor fit].

For the molecule `CCOc1c(Cl)cc(/C=N/O)cc1OC`, the half-maximal activity concentration (AC50) under setting [1] is 29.1 µM [rising, single point].

As to `CN1/C(=C\C=C2/C(=O)Oc3ccccc3C2=O)C(C)(C)c2ccccc21`, the AC50 under setting [1] is 6.51 µM [falling, partial curve].

In the case of `Cc1cccc(NS(=O)(=O)c2ccc(C(=O)N3CCN(c4ccccc4O)CC3)cc2)c1C`, the concentration at half-maximal activity (AC50) under setting [1] was 14.1 µM [falling, partial curve, poor fit].

For `O=C(O)/C=C1\NC(=O)c2ccccc21`, the AC50 under setting [1] is 35.5 µM [rising, partial curve, poor fit].

On to `CCS(=O)(=O)N1Cc2ccccc2CC1C(=O)Nc1cccc(C)c1` (stereo unspecified), for which, under setting [1], the AC50 is 7.94 µM [falling, partial curve, poor fit].

`CCNC(=O)NC(=O)COC(=O)CNC(=O)COc1ccccc1`: the AC50 under setting [1] is 0.517 µM [falling, full curve, poor fit].

As to `COc1cc(CC(=O)N/N=C/c2ccccc2)c([N+](=O)[O-])cc1OC`, under setting [1], the AC50 was 1.16 µM [falling, full curve].

As for `CN(C)c1cccc2c(S(=O)(=O)Nc3ccccn3)cccc12`, the AC50 under setting [1] is 14.6 µM [rising, single point].

With `Clc1ccc2nc(-c3ccccc3)nc(C(Cl)Cl)c2c1`, the AC50 under setting [1] is 6.31 µM [rising, full curve, poor fit] and the AC50 under setting [2] is 3.98 µM [falling, full curve].

Turning to `COc1ccc(Cc2nc3ccc(C(=O)NC(C)Cc4ncccc4C)cc3o2)cc1OC` (stereo unspecified), the AC50 under setting [1] was 22.4 µM [falling, single point].

Regarding `Cc1ccc(CNC(=O)CCCc2cn(C)c3ccccc23)cc1`, the AC50 under setting [1] was 15.8 µM [falling, single point].

Consider `Nc1nnnn1/N=C/c1ccccc1OCc1ccccc1`, for which the AC50 under setting [1] is 0.731 µM [rising, full curve, poor fit].

`CCOCc1c(C(=O)NCc2ccccc2CN2CCCC2)oc2ccccc12`: the AC50 under setting [1] is 6.51 µM [falling, full curve].

Regarding `COc1ccc(NC(=O)c2ccc3c(c2)C(=O)N(CC2CCCO2)C3=O)cc1` (stereo unspecified), the AC50 under setting [1] is 35.5 µM [falling, partial curve, poor fit].

For `CCCCN(C(=O)Cn1nnc2ccccc21)C(C(=O)NCCOC)c1ccccc1` (stereo unspecified), the AC50 under setting [1] was 23.1 µM [rising, partial curve, poor fit].

For the molecule `CCOc1ccc(S(=O)(=O)NCC(=O)N(C)Cc2cccnc2)cc1`, the AC50 under setting [1] is 8.2 µM [falling, partial curve].

With `CCc1cc2c(=O)c(Oc3ccccc3)c(C)oc2cc1O`, the AC50 under setting [1] is 25.1 µM [rising, single point].

As to `O=C(Nc1ccc(N2CCN(C(=O)c3ccco3)CC2)cc1)c1ccco1`, the AC50 under setting [1] is 35.5 µM [rising, single point].

With `COCCNC(=O)c1onc(CSc2ccc(Cl)cc2)c1C(=O)O`, under setting [1], the AC50 is 22.4 µM [falling, single point].

Consider `CCCCn1nnc(N(C(=O)c2cccs2)C(=O)c2cccs2)n1`, for which the AC50 under setting [1] is 11.2 µM [falling, partial curve].

With `Nc1nn(-c2ccccc2)c(N)c1N=Nc1ccccc1F`, the AC50 under setting [1] is 5.17 µM [falling, partial curve].

`Cc1cc(O)cc2c1C(c1ccc(F)cc1)CC1(CC(C)(C)NC(=S)N1)O2` (stereo unspecified): the AC50 was 11.2 µM [falling, partial curve, poor fit] under setting [1] and 20 µM [rising, partial curve, poor fit] under setting [2].

Turning to `CCSc1ccccc1C(=O)N1CCN(c2ccccc2F)CC1`, the AC50 under setting [1] is 29.1 µM [rising, single point].

Turning to `Cc1ccc(-n2c([S-])c(C(=O)NC(C)c3ccccc3)[n+]3ccccc23)cc1` (stereo unspecified), the AC50 under setting [1] was 22.4 µM [rising, single point].

For the molecule `Nc1c2c(nc3ccccc13)CCCC2`, under setting [1], the AC50 is 25.9 µM [falling, partial curve, poor fit].

Turning to `O=C(CCc1ccccc1)Nc1nnc(-c2cccs2)o1`, the AC50 under setting [1] is 0.517 µM [falling, full curve, poor fit].

The values are drawn from PubChem BioAssay AID493014 (National Center for Advancing Translational Sciences (NCATS), 2011).
